These are yes or no findings as the source states them, for the method shown. Some results given as binding are weak or reduced against the parent protein; the word gives no strength.
Columns and labels:
[1] = molecular target: Xenopus Smad2 MH2 domain (aa248 to aa467) GAL4 activation domain fusion (Xenopus) (UniProt O70436); experiment: yeast two-hybrid
[2] = molecular target: full-length mouse Smad4 (aa1 to aa548) GAL4 activation domain fusion (mouse) (UniProt P97471); experiment: yeast two-hybrid
[3] = molecular target: Xenopus Smad2 MH2 domain (aa248 to aa467) GAL4 activation domain fusion (Xenopus) (UniProt O70436); experiment: yeast two-hybrid, X-gal colony lift filter assay (color intensity)
[4] = molecular target: full-length mouse Smad4 (aa1 to aa548) GAL4 activation domain fusion (mouse) (UniProt P97471); experiment: as above
[5] = molecular target: human Smad1 MH2 domain (aa249 to aa465) GAL4 activation domain fusion (human) (UniProt Q15797); experiment: as above

Protein sequences, listed by entry. Tags and fused reporters are not part of them. Lines headed by an entry give the natural chain unless they say otherwise; changes in a name come on top. Residues count along the entry.
UniProt O70436: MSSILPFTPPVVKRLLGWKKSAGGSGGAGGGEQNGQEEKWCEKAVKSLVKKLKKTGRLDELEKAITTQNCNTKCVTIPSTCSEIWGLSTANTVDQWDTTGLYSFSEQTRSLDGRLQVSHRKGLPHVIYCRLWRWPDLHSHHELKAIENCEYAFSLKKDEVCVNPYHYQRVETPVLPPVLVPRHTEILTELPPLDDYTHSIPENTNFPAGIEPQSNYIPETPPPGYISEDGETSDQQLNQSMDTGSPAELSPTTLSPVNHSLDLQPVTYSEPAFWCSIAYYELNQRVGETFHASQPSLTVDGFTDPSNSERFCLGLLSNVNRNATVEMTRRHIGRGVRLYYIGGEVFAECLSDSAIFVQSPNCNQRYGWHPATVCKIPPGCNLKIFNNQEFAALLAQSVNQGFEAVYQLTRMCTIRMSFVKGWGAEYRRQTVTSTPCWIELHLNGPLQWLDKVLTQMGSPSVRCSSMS
UniProt P97471, residues 1-548: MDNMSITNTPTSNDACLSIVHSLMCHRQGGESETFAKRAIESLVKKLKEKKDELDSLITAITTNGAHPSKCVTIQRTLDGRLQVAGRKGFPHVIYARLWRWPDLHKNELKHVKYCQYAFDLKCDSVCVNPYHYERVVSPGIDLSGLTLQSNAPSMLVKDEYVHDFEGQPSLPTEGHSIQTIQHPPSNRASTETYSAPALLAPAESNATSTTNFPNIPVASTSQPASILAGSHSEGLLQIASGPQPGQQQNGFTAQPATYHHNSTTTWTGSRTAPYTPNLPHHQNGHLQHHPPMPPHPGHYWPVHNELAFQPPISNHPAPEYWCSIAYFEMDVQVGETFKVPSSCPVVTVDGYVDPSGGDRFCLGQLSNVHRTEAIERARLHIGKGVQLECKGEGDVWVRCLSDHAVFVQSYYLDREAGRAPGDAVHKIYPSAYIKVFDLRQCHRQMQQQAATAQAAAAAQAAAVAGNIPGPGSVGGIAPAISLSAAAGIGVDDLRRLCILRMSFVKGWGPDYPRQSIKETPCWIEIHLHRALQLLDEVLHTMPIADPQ
UniProt Q15797, residues 249-465: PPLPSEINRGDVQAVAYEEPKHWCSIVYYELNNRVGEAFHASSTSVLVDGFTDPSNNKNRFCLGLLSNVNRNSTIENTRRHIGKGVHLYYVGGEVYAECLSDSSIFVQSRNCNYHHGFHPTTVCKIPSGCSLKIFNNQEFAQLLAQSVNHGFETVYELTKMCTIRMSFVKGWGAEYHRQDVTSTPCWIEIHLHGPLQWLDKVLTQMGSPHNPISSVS
UniProt P04386: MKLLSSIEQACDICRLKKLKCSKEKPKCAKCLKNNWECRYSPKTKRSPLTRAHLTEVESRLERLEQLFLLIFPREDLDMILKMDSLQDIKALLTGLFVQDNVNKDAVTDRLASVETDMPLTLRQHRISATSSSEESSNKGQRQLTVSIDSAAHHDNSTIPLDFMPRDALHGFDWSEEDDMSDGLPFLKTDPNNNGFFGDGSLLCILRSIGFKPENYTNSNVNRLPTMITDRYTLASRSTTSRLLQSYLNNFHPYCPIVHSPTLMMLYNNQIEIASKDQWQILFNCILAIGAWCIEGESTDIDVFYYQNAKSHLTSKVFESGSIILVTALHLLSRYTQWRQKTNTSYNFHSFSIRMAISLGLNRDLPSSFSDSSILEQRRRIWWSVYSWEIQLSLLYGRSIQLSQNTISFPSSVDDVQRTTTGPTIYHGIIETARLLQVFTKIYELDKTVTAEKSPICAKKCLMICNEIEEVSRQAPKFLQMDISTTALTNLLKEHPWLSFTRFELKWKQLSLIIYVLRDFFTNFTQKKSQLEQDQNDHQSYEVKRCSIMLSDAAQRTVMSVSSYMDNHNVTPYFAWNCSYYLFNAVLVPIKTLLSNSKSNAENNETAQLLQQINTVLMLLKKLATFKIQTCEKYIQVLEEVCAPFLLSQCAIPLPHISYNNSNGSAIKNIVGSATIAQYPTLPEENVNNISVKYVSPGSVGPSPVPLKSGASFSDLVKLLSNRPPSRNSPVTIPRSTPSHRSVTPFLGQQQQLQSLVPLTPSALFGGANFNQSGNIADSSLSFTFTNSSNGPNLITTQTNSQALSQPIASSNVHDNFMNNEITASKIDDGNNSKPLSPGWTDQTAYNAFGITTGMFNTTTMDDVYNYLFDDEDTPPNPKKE

Measured: binding

Smad4 (FL) GAL4 DNA-binding domain fusion (from UniProt P04386 1-147; P97471 1-548)
binds: all assays above
